Laboratory results published in publication PMC12428157.
Results are given in words; binding and its absence hold for the method and conditions named. In cells and extracts the contact can be indirect. Some binding calls cover weakened binding; strength is not graded here.

Target: human epidermal growth factor receptor 2 (HER2) (human (endogenous in breast cancer specimens and SK-BR-3)) (UniProt P04626)
Test: proximity ligation; Duolink PLA in SK-BR-3 cells fixed in 10% formalin and permeabilized with 0.1% Triton X-100; anti-MARCKS (D88D11) with anti-HER2 3B5 or 2G11; mouse IgG as negative control

binding: binds
B1: Myristoylated Alanine-Rich C Kinase Substrate (MARCKS) (protein, UniProt P29966 1-332)
chain: MGAQFSKTAAKGEAAAERPGEAAVASSPSKANGQENGHVKVNGDASPAAAESGAKEELQANGSAPAADKEEPAAAGSGAASPSAAEKGEPAAAAAPEAGASPVEKEAPAEGEAAEPGSPTAAEGEAASAASSTSSPKAEDGATPSPSNETPKKKKKRFSFKKSFKLSGFSFKKNKKEAGEGGEAEAPAAEGGKDEAAGGAAAAAAEAGAASGEQAAAPGEEAAAGEEGAAGGDPQEAKPQEAAVAPEKPPASDETKAAEEPSKVEEKKAEEAGASAAACEAPSAAGPGAPPEQEAAPAEEPAAAAASSACAAPSQEAQPECSPEAPPAEAAE
